{"source": "patent US10660932B2", "about": "“Drug combinations and methods to stimulate embryonic-like regeneration to treat diabetes and other diseases” (UNIVERSITY OF SOUTHERN CALIFORNIA, priority 2016, dated 2020)", "system": "human pancreatic islets from T1D subjects (T1DI)", "assay": "Human pancreatic islet treatments and qPCR, T1D islets (T1DI)", "assay_type": "cell-based", "conditions": "T1DI in standard medium, 36 h; Rapamycin 20 nM, H89 20 uM", "procedure": "To investigate how the fasting mimicking conditions affect Ngn3 expression and β-cell functions in human pancreatic cells, we performed ex vivo experiments using primary human pancreatic islets (FIG. 6A). Briefly, the pancreatic islets from healthy and T1D subjects (HI and T1DI, respectively) were cultured according to the manufacturer's instructions. The cultured islets were then treated with serum from subjects enrolled in a clinical trial testing the effects of a low protein and low calorie FMD lasting 5 days (NCT02158897)^17. Serum samples were collected at baseline and at day 5 of the fasting mimicking diet in 5 subjects.\nIn cells from normal human subjects, these effects were reversed by IGF-1 treatment (FIG. 6G). […]\nCells were treated for 36 h with: Standard medium: Celprogen, M35002-045 for healthy islets and M35001-035 for T1D islets). […] Total RNA was extracted using RNeasy Mini kit (Qiagen) according to the manufacturer's instructions and quantified with the use of the Nanodrop system (Thermo Scientific, Waltham, Mass., USA). […] The expression level were analyzed by quantitative real-time polymerase chain reaction (PCR) on a Roche LightCycler 480II . Gene expression was quantified using the comparative Ct method.", "note": "For at least one compound, name, drawing or mass did not settle the structure.", "data": [{"smiles": "CO[C@H]1C[C@@H]2CC[C@@H](C)[C@@](O)(O2)C(=O)C(=O)N2CCCC[C@H]2C(=O)O[C@H]([C@H](C)C[C@@H]2CC[C@@H](O)[C@H](OC)C2)CC(=O)[C@H](C)/C=C(\\C)[C@@H](O)[C@@H](OC)C(=O)[C@H](C)C[C@H](C)/C=C/C=C/C=C/1C", "note": "[rapamycin, reference compound]", "values": [{"measurement": "expression of lineage markers Sox2 and Ngn3", "value": "not induced"}]}]}
